Test results taken from the supplement of paper PMC8256030.
The list shows a part of the results. Single values are uncertain here, since repeats match poorly.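 HEK293T cells were given each compound shortly before transfection with a reporter in which red mCherry is followed by the SARS-CoV-2 frameshift element and then GFP in the −1 frame, so GFP appears only after frameshifting.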

Each compound was assayed on HEK293T (assay: percent viability (nuclei count) relative to control; higher = more viable cells). Details: 10 µM; 24 h.

| SMILES | percent viability [%] |
| --- | --- |
| C(=C\c1ccccc1)/CN1CCN(C(c2ccccc2)c2ccccc2)CC1 | 329 |
| CC1CCC(NC(=O)N(CCCl)N=O)CC1 (configuration not stated) [semustine] | 337 |
| NS(=O)(=O)c1ccc(NCS(=O)(=O)O)cc1 [mesulfamide] | 165 |
| CC(=O)Nc1nnc(S(N)(=O)=O)s1 [acetazolamide] | 308 |
| CO[C@H]1C[C@H](O[C@H]2[C@H](C)O[C@@H](O[C@@H]3/C(C)=C/C[C@@H]4C[C@@H](C[C@]5(C=C[C@H](C)[C@@H](C6CCCCC6)O5)O4)OC(=O)[C@@H]4C=C(C)[C@@H](O)[C@H]5OC/C(=C\C=C\[C@@H]3C)[C@]54O)C[C@@H]2OC)O[C@@H](C)[C@@H]1O | 132 |
| CN(C)CCOC(C)(c1ccccc1)c1ccccn1 (configuration not stated) | 180 |
| CCCCCCCN(CC)CCCC(O)c1ccc(NS(C)(=O)=O)cc1 (configuration not stated) [ibutilide] | 162 |
